Cell number change and AC50 data for 58 molecules are collected here from PubChem BioAssay AID2685 (National Center for Advancing Translational Sciences (NCATS), 2010).

A short description of the assay: qHTS Assay for Lipid Storage Modulators in Drosophila S3 Cells.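 As to Cell number change: cells counted by Cell Tracker Red CMTPX staining in the red channel.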 The note with it: BODIPY lipid droplet fluorescence, 18-24 h; for cell number change: measured here: cell count max response, cells fed with added oleic acid. The essentials: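 Drosophila S3 cells got compounds at several concentrations plus oleic acid (400 uM solution). Laser-scanning cytometry with 488 nm excitation read lipid droplets at 500-530 nm and cells at 575-640 nm. Percent activity was relative to 20 uM Triacsin C.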
Background: qHTS replaces the single test concentration by a dilution series.

Where [1] appears, read: measured here: lipid fluorescence (Fed channel) AC50, cells fed with added oleic acid.
The mark [2] stands for this setting: measured here: cell number channel AC50, cells fed with added oleic acid.

This is one part of the list. Further columns of the screen follow, without active or inactive calls. Compounds called inactive in the main read-out are mostly missing here. Words in brackets tell the shape of the fitted curve; partial curves, single points and poor fits give uncertain potencies.

Take `CCOC(=O)CC1=C(C#N)C(c2cccnc2)C(C(=O)OCC)=C(N)O1` (configuration not stated): the cell number change was -7.64%. Under setting [1], the AC50 (usually the midpoint of the concentration-response curve, whichever way the signal moves) is 0.116 µM [rising, full curve, poor fit].
For the molecule `CCn1ccnc1CN(C)C(=O)c1ccc(OC2CCN(CCc3ccccc3)CC2)cc1`, under setting [1], the AC50 is 29.1 µM [rising, single point].
As for `CC1CCN(C(=O)CSc2nnc(Cc3cccn3C)n2-c2ccc(F)cc2)CC1`, the cell number change worked out at 21.9%. Moreover, under setting [1], the AC50 was 0.58 µM [falling, single point].
With `O=c1oc(-c2ccccc2Cl)nc2ccsc12`, the cell number change is -9.89%. Besides, the AC50 under setting [1] is 29.1 µM [rising, single point].
Turning to `CC(=O)Nc1nnc(C2=COCCO2)o1`, the AC50 under setting [1] was 2.91 µM [rising, single point].
As for `CN(C)C(CNC(=O)CCc1nc2cc(Cl)ccc2n(Cc2ccccc2)c1=O)c1ccccc1` (configuration not stated), the cell number change was found to be 78.8%. Moreover, the AC50 under setting [2] is 9.2 µM [rising, partial curve].
On to `CC(=O)c1ccc(N2CCN(C(=O)Nc3ccc(F)cc3)CC2)cc1`, for which the cell number change came to 14.9%. Moreover, under setting [1], the AC50 is 29.1 µM [rising, single point].
Regarding `CN(C)c1ccc(/C=N\NC(=O)CC#N)cc1`, the cell number change is 3.51%. Under setting [2], the AC50 is 0.651 µM [falling, partial curve, poor fit]. Moreover, the AC50 under setting [1] was 6.51 µM [falling, partial curve, poor fit].
For the molecule `Nc1c(NCCC2=CCCCC2)c(=O)[nH]c(=O)n1Cc1ccccc1`, the cell number change is -16.6%. Moreover, the concentration at half-maximal activity (AC50) under setting [2] is 0.13 µM [falling, full curve, poor fit]. For the same molecule, the half-maximal activity concentration (AC50) under setting [1] is 0.291 µM [falling, full curve, poor fit].
With `O=C(Nc1ccc2[nH]c(=O)[nH]c2c1)c1ccc(Br)o1`, the cell number change was 22.6%.
`CCCOc1ccc(CSc2nc3ccccc3[nH]2)cc1`: the cell number change was -36.8%. The AC50 under setting [2] is 6.51 µM [falling, partial curve]. Further, the AC50 under setting [1] was 10.3 µM [falling, partial curve].
`COc1ccc(NC(=O)c2cc(-c3ccc(C)c(C)c3O)n[nH]2)cc1Cl`: the cell number change is -31.4%. For the same molecule, the concentration at half-maximal activity (AC50) under setting [2] was 29.1 µM [falling, single point]. For the same molecule, under setting [1], the half-maximal activity concentration (AC50) was 9.2 µM [falling, partial curve].
In the case of `COc1ccc(OC)c(NC(=O)CCC(=O)Nc2nnc(C(C)C)s2)c1`, the cell number change was determined as 43.2%. The AC50 under setting [2] is 16.4 µM [rising, single point].
For `CCCC(=O)N1CCN(c2ccc(NC(=O)c3cc4ccccc4o3)cc2Cl)CC1`, the cell number change is -41.9%. For the same molecule, under setting [2], the concentration at half-maximal activity (AC50) was 29.1 µM [falling, single point]. Besides, the half-maximal activity concentration (AC50) under setting [1] is 29.1 µM [falling, single point].
In the case of `CC(=O)Nc1ccc(NC(=O)C(C)OC(=O)c2cc(S(=O)(=O)N3CCOCC3)ccc2Cl)cc1` (configuration not stated), the cell number change is -24.9%. The AC50 under setting [1] is 23.1 µM [falling, partial curve, poor fit].
For `CCOc1ccccc1NC(=O)Nc1cc(OC)ccc1OC`, the AC50 was 0.731 µM [rising, full curve] under setting [2] and 2.59 µM [rising, partial curve] under setting [1].
Regarding `Cc1ccc(Cl)cc1N1CCN(S(=O)(=O)c2ccc3c(c2)NC(=O)C(C)C(=O)N3)CC1` (configuration not stated), the cell number change came to 32.3%. The concentration at half-maximal activity (AC50) under setting [2] was 29.1 µM [rising, single point].
Consider `COc1ccc(-c2[nH]ncc2/C=N/NC(=O)c2ccncc2)c(OC)c1`, for which the cell number change was 11.2%. The half-maximal activity concentration (AC50) under setting [2] is 0.0517 µM [rising, full curve, poor fit].
Take `O=S(=O)(c1ccc(F)c(F)c1F)N1CCN(C(=S)NCc2ccccc2)CC1`: under setting [2], the half-maximal activity concentration (AC50) was 0.517 µM [rising, single point].
Take `Cc1ccccc1C(=O)O/N=C/c1c(N2CCOCC2)n(C)c2ccccc12`: the cell number change is -3.83%. Besides, the AC50 under setting [2] is 0.164 µM [rising, full curve, poor fit]. The AC50 under setting [1] was 0.291 µM [rising, full curve, poor fit].
In the case of `Cc1ccc(CNC(=O)CCS(=O)(=O)Cc2ccc(C)cc2)cc1`, the cell number change was -15.3%.
In the case of `Cc1noc(C)c1C(=O)OCC(=O)NCCC1=CCCCC1`, the cell number change was found to be 20.5%. Further, under setting [1], the half-maximal activity concentration (AC50) is 0.103 µM [falling, full curve, poor fit].
Consider `CCC(=O)Nc1ccc(C(=O)NNC(=O)c2ccc(Cl)cc2)cc1`, for which the cell number change was determined as 11.6%. The AC50 under setting [1] was 0.00461 µM [falling, full curve, poor fit].
With `CCN1CCN(c2ccc(S(=O)(=O)N3CCOCC3)cc2NC(=O)/C=C/c2ccc(C)cc2)CC1`, the cell number change is -0.878%. Under setting [1], the AC50 was 0.651 µM [falling, single point].
With `CC(=O)c1cccc(NC(=S)NC(=O)c2ccccc2Cl)c1`, the cell number change amounted to 6.51%. For the same molecule, the AC50 under setting [1] is 0.164 µM [rising, full curve, poor fit].
For `COC(=O)c1ccc(NC(=O)Cn2nnc(-c3cccs3)n2)cc1`, the cell number change is -12.1%. Under setting [1], the AC50 was 0.326 µM [falling, full curve, poor fit].
On to `Cc1ccc(NC(=O)c2nc[nH]c2C(=O)N2CCc3ccccc3C2)cc1`, for which the cell number change is -30.4%. Further, the AC50 under setting [2] was 4.61 µM [falling, single point].
With `Cn1cc(CNC(=O)C2CCC(=O)N(Cc3cccc(C(F)(F)F)c3)C2)cn1` (configuration not stated), the cell number change was -15%. Also, the concentration at half-maximal activity (AC50) under setting [1] is 6.51 µM [rising, partial curve, poor fit].
Turning to `COc1cc(C)ccc1OCCOCCOc1ccccc1Br`, the cell number change was -17.2%. Further, the concentration at half-maximal activity (AC50) under setting [1] was 20.6 µM [falling, single point].
For `COc1cc(NC(=O)CCC2CCCC2)cc(-n2cnnn2)c1`, the cell number change was -0.365%. The AC50 under setting [1] is 0.092 µM [rising, full curve, poor fit].
Turning to `COCCNC(=O)C(c1ccc(O)cc1)N(Cc1ccco1)C(=O)CCC(=O)Nc1ccccn1` (configuration not stated), the cell number change was -19%.
Regarding `CC1(C)Cc2c(C#N)c(OCC(=O)c3ccc(Cl)cc3)nc(-c3ccco3)c2CO1`, the concentration at half-maximal activity (AC50) reads like this: under setting [2], 0.259 µM [rising, partial curve, poor fit]; under setting [1], 0.291 µM [rising, partial curve, poor fit].
Regarding `CCOC(=O)c1ccccc1NC(=O)CN(c1ccccc1C)S(C)(=O)=O`, the AC50 under setting [1] was 4.61 µM [rising, single point].
As to `O=C(CN1N=C(c2ccccc2)CCC1=O)NCc1cccs1`, the cell number change is 39.4%. Further, the AC50 under setting [2] is 20.6 µM [rising, single point]. Under setting [1], the half-maximal activity concentration (AC50) was 29.1 µM [rising, single point].
Take `Cc1cc(Cl)ccc1NC(=O)NC1CCN(S(=O)(=O)c2ccc(F)cc2)CC1`: the concentration at half-maximal activity (AC50) reads like this: under setting [2], 0.092 µM [rising, partial curve]; under setting [1], 0.0291 µM [rising, full curve, poor fit].
As for `CSC1=N/C(=C\c2ccc(Br)o2)C(=O)S1`, under setting [1], the AC50 was 0.184 µM [falling, full curve, poor fit].
Regarding `CC1=C(C(=O)N2CCOCC2)C(c2cccs2)NC(=O)N1` (configuration not stated), the cell number change is -17.1%. Further, under setting [1], the AC50 is 0.0651 µM [rising, full curve, poor fit].
As to `O=C(Nc1ccc(NC(=O)c2cccs2)cc1)c1ccccc1`, the half-maximal activity concentration (AC50) runs as follows: under setting [2], 6.51 µM [falling, single point]; under setting [1], 5.17 µM [falling, full curve].
Take `CCc1ccc(OC(C)C(=O)N(Cc2ccco2)C2CCS(=O)(=O)C2)cc1` (configuration not stated): the cell number change was found to be 24.8%.
With `CCc1ccc2[nH]c(=O)c(CN(Cc3ccccc3)C(=O)Nc3ccccc3OC)cc2c1`, the cell number change is 26.8%.
Still for that read-out and setting: the figure for `CC(C)CNC(=O)NC(=O)COc1ncnc2sccc12` is 19.3%.
For `COC(=O)c1ccc(CN2C(=O)c3ccccc3C2=O)o1`, the cell number change came to 5.22%. Besides, under setting [1], the half-maximal activity concentration (AC50) was 29.1 µM [rising, single point].
With `Cc1ccc(C2CC(c3cccc(C)c3)n3nc(N)nc3N2)cc1` (configuration not stated), the cell number change turned out to be 0.711%.
`COC(=O)c1sc(-c2ccc(C(C)(C)C)cc2)cc1NC(=O)/C=C/C(=O)O`: the cell number change is -30.4%. Moreover, under setting [2], the AC50 was 0.82 µM [falling, full curve]. For the same molecule, the AC50 under setting [1] was 0.651 µM [falling, full curve, poor fit].
With `CCCc1ncc(C(O)c2cccc(OC)c2)n1C` (configuration not stated), the cell number change was 13.4%.
`Cc1ccc(S(=O)(=O)CCc2nnc(NC(=O)c3ccco3)s2)cc1`: the cell number change is -112%. Under setting [2], the AC50 was 0.082 µM [falling, full curve, poor fit]. Further, under setting [1], the AC50 was 2.91 µM [falling, partial curve].
Consider `CCCCn1c(=O)[nH]c(=O)c2c1nc(-c1ccc(C(F)(F)F)cc1)n2C`, for which the cell number change was 80.8%. Also, the half-maximal activity concentration (AC50) under setting [2] is 4.11 µM [rising, full curve]. Moreover, under setting [1], the concentration at half-maximal activity (AC50) was 0.206 µM [rising, partial curve, poor fit].
Consider `N#CC(C#N)=c1ccc2c(c1)N1C3=C(CCCC3)CC3CCCCC31N=2` (configuration not stated), for which the cell number change is -79.3%. Besides, the concentration at half-maximal activity (AC50) under setting [2] is 29.1 µM [falling, single point].
For `O=C(O)COc1ccc(-c2nc(-c3ccccc3)c(-c3ccccc3)[nH]2)cc1`, the cell number change is 11.8%.
As to `COc1ccc(C(=O)C2CCCN(Cc3ccc(Sc4nncn4C)o3)C2)cc1F` (configuration not stated), the cell number change came out at 15.9%. Under setting [1], the concentration at half-maximal activity (AC50) was 18.4 µM [rising, partial curve, poor fit].
For the molecule `COc1ccccc1NS(=O)(=O)c1cccc(C(=O)N/N=C/c2ccc(NC(C)=O)cc2)c1`, the cell number change worked out at 123%. Further, the AC50 under setting [2] was 6.51 µM [falling, single point]. The AC50 under setting [1] is 6.51 µM [falling, single point].
Take `O=C(NCc1ccccc1Cl)C1CCN(S(=O)(=O)c2ccc(N3CCCC3=O)cc2)CC1`: the cell number change stood at 58.6%. Besides, the AC50 under setting [2] was 23.1 µM [rising, single point].
Take `COCCCn1c(=O)c2ccccc2n(CC(=O)NC2CCCCC2)c1=O`: the cell number change is 21.8%.
As for `CC(=O)N1CCN(c2ccccc2NC(=O)c2cc3ccccc3o2)CC1`, the cell number change is -38.9%. Moreover, the AC50 under setting [2] is 25.9 µM [falling, single point]. In addition, the AC50 under setting [1] is 32.6 µM [falling, partial curve].
Take `COc1cccc(NC(=O)Nc2nnc(N3CCCCC3C)s2)c1` (configuration not stated): the cell number change amounted to 4.33%. The half-maximal activity concentration (AC50) under setting [1] was 5.17 µM [rising, single point].
`O=C(Cc1ccc(-n2c(=O)c3sccc3n(CC(=O)Nc3ccccc3F)c2=O)cc1)NCc1ccco1`: the half-maximal activity concentration (AC50) under setting [1] was 0.651 µM [rising, single point].
Regarding `CC(CN1CCCCC1)OC(=O)c1ccc2c(c1)OCO2` (configuration not stated), the cell number change came to 15.9%. The concentration at half-maximal activity (AC50) under setting [1] is 6.51 µM [falling, single point].
With `Cc1ccc(S(=O)(=O)NCC2CCC(C(=O)NCCCOC(C)C)CC2)cc1` (configuration not stated), the cell number change was -2.3%. Moreover, under setting [1], the concentration at half-maximal activity (AC50) is 0.116 µM [rising, full curve, poor fit].
